Results are given in words; binding and its absence hold for the method and conditions named. Binding seen in cells or lysates may run through a third protein. Some results given as binding are weak or reduced against the parent protein; the word gives no strength. For part of these data: Sequences can lack the tags named with a protein.
How the values were obtained:
Experiment in all cases: co-IP; HeLa cells transfected with the indicated plasmids, lysed after 24 h in CHAPSO buffer (1% CHAPSO, 150 mM NaCl, 5 mM EDTA, 50 mM Tris pH 7.6); lysate with anti-IER3IP1, anti-EGFP, anti-V5 or anti-FLAG overnight in the cold, Dynabeads Protein G, 5 washes, immunoblot
Unc5B-FLAG = Unc5B-FLAG (UniProt Q8K1S3)
EGFP-ERGIC53 = molecular target: T1, EGFP-ERGIC53 (UniProt P49257)
T1 sequence: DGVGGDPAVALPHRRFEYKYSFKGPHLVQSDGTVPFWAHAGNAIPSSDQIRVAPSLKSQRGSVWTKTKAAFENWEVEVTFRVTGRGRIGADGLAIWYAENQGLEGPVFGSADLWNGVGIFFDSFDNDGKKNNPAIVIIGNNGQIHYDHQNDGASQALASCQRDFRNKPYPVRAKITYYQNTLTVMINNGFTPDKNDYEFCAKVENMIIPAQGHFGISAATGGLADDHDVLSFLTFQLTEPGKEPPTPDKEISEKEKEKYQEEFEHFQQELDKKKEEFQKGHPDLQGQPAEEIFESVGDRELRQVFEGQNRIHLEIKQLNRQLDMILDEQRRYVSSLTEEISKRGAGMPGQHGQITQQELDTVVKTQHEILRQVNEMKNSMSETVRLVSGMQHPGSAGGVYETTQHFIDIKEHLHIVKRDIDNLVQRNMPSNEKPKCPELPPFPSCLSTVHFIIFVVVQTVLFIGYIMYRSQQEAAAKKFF

Chains of the proteins cited; added tags and fusions are not shown. Residues count along the entry.
UniProt Q8K1S3, residues 27-945: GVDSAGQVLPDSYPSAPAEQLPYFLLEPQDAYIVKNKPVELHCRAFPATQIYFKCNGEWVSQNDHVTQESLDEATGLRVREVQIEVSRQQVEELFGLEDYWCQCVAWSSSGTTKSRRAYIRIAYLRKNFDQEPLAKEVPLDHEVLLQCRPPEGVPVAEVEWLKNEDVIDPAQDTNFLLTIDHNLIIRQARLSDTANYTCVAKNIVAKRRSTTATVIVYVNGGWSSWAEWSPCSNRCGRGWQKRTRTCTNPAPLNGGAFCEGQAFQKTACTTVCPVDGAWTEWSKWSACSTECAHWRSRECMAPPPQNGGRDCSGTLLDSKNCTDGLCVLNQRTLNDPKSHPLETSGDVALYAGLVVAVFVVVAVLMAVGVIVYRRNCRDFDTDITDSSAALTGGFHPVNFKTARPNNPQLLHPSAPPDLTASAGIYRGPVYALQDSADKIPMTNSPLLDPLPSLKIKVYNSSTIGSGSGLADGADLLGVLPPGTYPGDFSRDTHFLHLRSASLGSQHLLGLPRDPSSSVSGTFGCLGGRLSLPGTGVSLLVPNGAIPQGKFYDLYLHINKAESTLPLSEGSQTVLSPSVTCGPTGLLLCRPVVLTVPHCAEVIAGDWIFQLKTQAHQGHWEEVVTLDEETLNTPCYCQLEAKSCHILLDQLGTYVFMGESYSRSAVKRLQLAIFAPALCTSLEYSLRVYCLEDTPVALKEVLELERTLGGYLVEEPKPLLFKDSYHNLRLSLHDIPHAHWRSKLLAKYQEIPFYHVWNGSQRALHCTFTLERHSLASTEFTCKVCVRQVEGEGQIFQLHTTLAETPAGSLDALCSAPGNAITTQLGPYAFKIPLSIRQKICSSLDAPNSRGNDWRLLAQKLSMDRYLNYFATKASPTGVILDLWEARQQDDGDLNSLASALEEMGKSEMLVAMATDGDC
UniProt P22607, residues 23-806: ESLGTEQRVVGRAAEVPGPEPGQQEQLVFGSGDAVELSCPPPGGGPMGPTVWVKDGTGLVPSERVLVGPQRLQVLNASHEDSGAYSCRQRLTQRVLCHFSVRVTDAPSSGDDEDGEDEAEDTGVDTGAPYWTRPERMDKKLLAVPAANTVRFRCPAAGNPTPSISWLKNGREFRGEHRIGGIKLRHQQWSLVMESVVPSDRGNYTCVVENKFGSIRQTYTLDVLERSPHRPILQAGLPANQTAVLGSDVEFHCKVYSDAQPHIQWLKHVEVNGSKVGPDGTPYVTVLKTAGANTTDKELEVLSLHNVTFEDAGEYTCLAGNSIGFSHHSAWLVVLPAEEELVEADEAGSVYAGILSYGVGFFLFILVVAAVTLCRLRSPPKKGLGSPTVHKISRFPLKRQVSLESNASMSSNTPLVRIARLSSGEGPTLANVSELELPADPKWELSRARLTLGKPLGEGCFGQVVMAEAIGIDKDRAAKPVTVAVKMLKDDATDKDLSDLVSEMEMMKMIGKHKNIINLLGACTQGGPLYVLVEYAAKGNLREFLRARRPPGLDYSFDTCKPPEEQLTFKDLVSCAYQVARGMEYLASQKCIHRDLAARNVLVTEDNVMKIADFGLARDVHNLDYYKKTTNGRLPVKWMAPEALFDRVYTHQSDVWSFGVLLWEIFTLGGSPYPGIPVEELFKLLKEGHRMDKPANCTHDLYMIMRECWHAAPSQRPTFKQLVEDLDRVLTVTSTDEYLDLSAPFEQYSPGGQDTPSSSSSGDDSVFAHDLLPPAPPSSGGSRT

FGFR3-V5 = FGFR3-V5 (UniProt P22607)

binding (Unc5B-FLAG): binds
binding (EGFP-ERGIC53): binds
binding (FGFR3-V5): binds
B1: Immediate Early Response-3 Interacting Protein 1 (IER3IP1) (protein, UniProt Q9Y5U9 1-82)
chain: MAFTLYSLLQAALLCVNAIAVLHEERFLKNIGWGTDQGIGGFGEEPGIKSQLMNLIRSVRTVMRVPLIIVNSIAIVLLLLFG
